Reference: patent US20050209451A1, “Crystalline form of cefdinir” (priority 2002, published 2005)
For at least one compound, name, drawing or mass did not settle the structure.

Test: dissolution tests in 0.07 N HCl
Format: physicochemical
Conditions: compared with crystal A

C=CC1=C(C(=O)O)N2C(=O)[C@@H](NC(=O)/C(=N\O)c3csc(N)n3)[C@H]2SC1 [new crystal, cefdinir]
dissolution rate: less than that of crystal A
